Three molecules from patent US20230233707A1 (University of Washington, published 2023) can be followed below.

To fix the notation:
B1: t32.4 (designed binder)
chain: MFNKSQQSAFYLILNMPNLNEAQRNGFIQSLKDDPSKSEVVAGEAAIEAARNALKKGSPETAREAVRLALELVQEAERQARKTGSTERLIAAAKLAIEVARVALKVGSPETAREAVRTALELVQELIRQARKTGSKEVLEEAAKLALEVAKVAAEVGSPETAARAVATAVEALKEAGASEDEIAEIVARVISEVIRILKESGSEYKVICRAVARIVAEIVEALKRSGTSEDEIAEIVARVISEVIRTLKESGSDYLIICVCVAIIVAEIVEALKRSGTSEDEIAEIVARVISEVIRTLKESGSSYEVIKECVQIIVLAIILALMKSGTEVEEILLILLRVKTEVRRTLKESGSLEHHHHHH
notes: Homotrimer for T32 tetrahedral cages; C-terminal GS linker and 6xHis tag; also called t.4_r1; t32.4 AbC-forming design
B2: t32.8 (designed binder)
chain: MFNKDQQSAFYEVLNMPNLNEAQRNGFIQSLKDDPSQSLKILIKAAAGGDSELEEVAKRIVKELAEQGRSEKEAAKEAAELIERITRAAGGNSDLIELAVRIVKILEEQGRSPSEAAKEAVEAIEAIVRAAGGDSEAIKVAAEIAKTIITQKESGSEYKEICRTVARIVAEIVEKLKRNGASEDEIAEIVAAIIAAVILTLKLSGSDYLIICVCVAIIVAEIVEALKRSGTSEDEIAEIVARVISAVIRVLKESGSSYEVIKECVQIIVLAIILALMKSGTEVEEILLILLRVKTEVRRTLKESGSLEHHHHHH
notes: Homotrimer for T32 tetrahedral cages; also called t32.8 AbC-forming design
B3: o42.1 (designed binder)
chain: MFNKDQQSAFYEILNMPNLNEALRNGFIQLLKDDPSKSTVILTAAKVAAELSEKIRTLKESGSSYEQIAETVAKAVAKLVEKLKRNGVSEDEIALAVALIISAVIQTLKESGSSYEVIAEIVARIVAEIVEALKRSGTSEDEIAEIVARVISEVIRTLKESGSSYEVIAEIVARIVAEIVEALKRSGTSEDEIAKIVARVIAEVLRTLKESGSSEEVIKEIVARIITEIKEALKRSGTSEDEIELITLMIEAALEIAKLKSSGSEYEEICEDVARRIAELVEKLKRDGTSAVEIAKIVAAIISAVIAMLKASGSSYEVICECVARIVAEIVEALKRSGTSAAIIALIVALVISEVIRTLKESGSSFEVILECVIRIVLEIIEALKRSGTSEQDVMLIVMAVLLVVLATLQLSGSLEHHHHHH
notes: Homotetramer for O42 octahedral cages; C-terminal GS linker and 6xHis tag; also called octahedral o42.1 AbC-forming design

In this assay the target is T1, Fc from human IgG1 (human, UniProt P01857-1 104-330 = IgG part).
T1 construct: domain: Fc; also called human IgG1 Fc; IgG1 Fc protein
In words: SEC, design mixed with human IgG1 Fc, overlaid on the single components [panel B]. The source says:
Synthetic genes encoding designed protein sequences appended with a C-terminal 6× histidine tag were expressed in E. coli. Designs were purified from clarified lysates using immobilized metal affinity chromatography (IMAC), and size exclusion chromatography (SEC) was used as a final purification step. […] Designs were then combined with human IgG1 Fc, and the assemblies were re-purified via SEC. Eight of these AbC-forming designs assembled with Fc into a species that eluted as a monodisperse peak at a volume consistent with the target nanoparticle molecular weight (FIG. 2a-b; 3 D2 dihedral, 2 T32 tetrahedral, 1 O42 octahedral, and 2 I52 icosahedral AbCs). For the i52.6 design, adding 100 mM L-arginine to the assembly buffer prevented aggregation after combining with Fc; all other designs readily self-assembled in Tris-buffered saline.
Designs that produced monodisperse SEC peaks around their expected retention volume were combined with Fc from human IgG1. Fc was produced recombinantly either using standard methods for expression in HEK293T cells or in E. coli (43). Cage components were incubated at 4° C. for at minimum 30 minutes. […] Fc-binding and cage formation were confirmed via SEC; earlier shifts in retention time (compared to either component run alone) show the formation of a larger structure. NS-EM was used as previously described to confirm the structures of designs that passed these steps.
Regarding B1, the binding result is “binds”.
The value for B2 was “binds”.
Under B3 stands “binds”.
